42 compounds from PubChem BioAssay AID493014 (National Center for Advancing Translational Sciences (NCATS), 2011) can be followed below.

The other results are listed elsewhere or left out. Shown are side measurements of this screen, not its main read-out; they come without a call. Compounds called inactive in the main read-out are mostly missing here. Potencies come from curve fits of mixed quality, noted in brackets.

This experiment can be described thus: qHTS Assay to Find Inhibitors of Chronic Active B-Cell Receptor Signaling. Conditions: ABC-DLBCL IkBa-CBG/CBR reporter, luminescence ratio (green luciferase fused to IkBa over red control in TMD8 lymphoma cells), 4 h; measured here: CBR red luminescence, cell number. An outline of the steps:
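TMD8 human ABC-DLBCL cells with doxycycline-inducible IκBα–green luciferase fusion and unfused red luciferase, in 0.5% FBS medium; compounds up to 46 uM, 4 h at 37C. Green/red luminescence ratio, filter-overlap corrected, fitted to concentration-response curves.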
For orientation: qHTS replaces the single test concentration by a dilution series.
The term AC50 denotes the midpoint of the concentration-response curve, whichever way the signal moves. Consider `Cc1ccc(-c2nc(S(=O)(=O)c3ccc(C)cc3)c(N3CCOCC3)o2)cc1`, for which the AC50 is 15.8 µM [rising, partial curve, poor fit].
With `O=C(N/N=C/c1ccc(Cl)s1)C(O)c1ccccc1` (configuration not stated) the figure was 35.5 µM [falling, single point].
`COc1ccc(NC(=O)CO/N=C2/CCCc3nonc32)c(OC)c1`: the AC50 is 35.5 µM [falling, single point].
The same measure for `CC(Sc1nc(N)cc(N)n1)C(=O)NCCC1=CCCCC1` (configuration not stated): 6.51 µM [falling, single point]; for `COc1ccc(C(=O)N2CCC(C(=O)Nc3ccc(OC)c(OC)c3)CC2)cc1`: 0.562 µM [falling, full curve]; for `Cc1cc(N)n2nc(-c3ccccc3)cc2n1`: 1.16 µM [falling, full curve, poor fit].
In the case of `Cc1cc2ccc(C)c(C)c2nc1SCC(=O)c1cccs1`, the AC50 was 16.4 µM [rising, single point].
The same measure for `Cc1cc(NC(=O)c2ccc([N+](=O)[O-])o2)ccc1NC(=O)c1ccco1`: 35.5 µM [falling, single point]; for `CCOC(=O)N1CCN(c2c(NCCN3CCN(c4ccccc4F)CC3)c(=O)c2=O)CC1`: 22.4 µM [rising, single point].
With `COC(=O)CCC(=O)Nc1cccc(Br)c1`, the AC50 was 0.461 µM [rising, single point].
Consider `N#CCCCSc1nnc(-c2ccc(Cl)cc2)n1-c1ccccc1`, for which the AC50 was 11.2 µM [falling, partial curve, poor fit].
With `Cn1c(-c2ccccc2)c(C(=O)CCl)c2ccccc21` the figure was 8.91 µM [falling, partial curve, poor fit]; with `CCc1nnc(NC(=O)CSc2ncnc3c2oc2ccccc23)s1`, 2.06 µM [falling, partial curve].
Turning to `O=C(Nc1ccc(N2CCOCC2)c(Cl)c1)c1c(F)c(F)c(F)c(F)c1F`, the AC50 is 0.651 µM [falling, full curve].
The same measure for `Cc1c(C(=O)OCC(=O)N2CC(=O)Nc3ccccc32)oc2ccc(Br)cc12`: 0.00517 µM [falling, full curve, poor fit]; for `Cc1nc(N(CCO)C2CCCCC2)c2nnn(Cc3ccccc3)c2n1`: 35.5 µM [falling, single point]; for `COC(=O)CNC(=O)c1ccc(OC2CCN(C(=O)C3CC3)CC2)cc1`: 14.1 µM [falling, partial curve, poor fit].
The same measure for `CCN(CC)S(=O)(=O)c1cccc(N=Nc2c(O)c3ccccc3oc2=O)c1`: 3.55 µM [falling, partial curve, poor fit]; for `O=c1c2ccccc2nc2sc(Nc3cccc(C(F)(F)F)c3)nn12`: 0.0891 µM [falling, full curve, poor fit]; for `O=C(O)c1ccc(CSc2nnnn2C2CCCCC2)cc1`: 29.1 µM [rising, single point].
The same measure for `O=C(CN1C(=O)S/C(=C\C=C\c2ccccc2)C1=O)Nc1cccc(O)c1`: 20.6 µM [falling, single point]; for `COc1ccccc1C1c2ccc3ccccc3c2Oc2ncn(CCCO)c(=N)c21` (configuration not stated): 35.5 µM [falling, single point]; for `COc1cccc(CNC(=O)c2ccc(Cl)c(S(=O)(=O)N3CCOCC3)c2)c1`: 2.91 µM [rising, single point].
As for `COc1cc(/C=C(\C#N)c2nc3c(s2)CCCC3)ccc1O`, the AC50 was 5.8 µM [rising, single point].
With `CCOc1ccc(/C=C2\SC(=S)N(CCC(=O)Nc3ccc(C(=O)O)cc3)C2=O)cc1` the figure was 0.631 µM [falling, full curve, poor fit].
With `CN1C(=O)/C(=C/c2ccc(O)c([N+](=O)[O-])c2)NC1=S` the figure was 1 µM [rising, full curve, poor fit].
The same measure for `CC1(C)OC(=O)C(=CNCC(=O)NCC(=O)O)C(=O)O1`: 16.4 µM [falling, partial curve].
On to `COc1ccc(-c2[nH]c(-c3ccc(C(=O)O)cc3)nc2-c2ccccc2)cc1`, for which the AC50 is 3.55 µM [falling, partial curve, poor fit].
Regarding `O=C1CCS/C(=N\N=C\c2ccc(Cl)cc2Cl)N1`, the AC50 was 4.47 µM [rising, full curve, poor fit].
The same measure for `NC(=O)C1CC(=O)N(c2ccc(OCC(=O)Nc3ccc(F)cc3)cc2)C1` (configuration not stated): 1.84 µM [rising, partial curve, poor fit].
With `CCCC(=O)c1ccc(N2CCCCC2)c(F)c1` the figure was 35.5 µM [rising, single point]; with `COc1cc2c(cc1OC)CN(c1nc(CN3CCCC3)nc3sc(C)c(C)c13)CC2`, 35.5 µM [falling, single point]; with `O=C(NCc1ccc2c(c1)OCO2)c1cccc([N+](=O)[O-])c1`, 25.9 µM [rising, single point].
The same measure for `Cc1ccc(-c2csc(NC(=O)COC(=O)c3cccc(S(=O)(=O)N4CCOCC4)c3)n2)cc1`: 4.47 µM [rising, single point]; for `O=C(Nc1ccc(N2CCN(C(=O)c3ccco3)CC2)cc1)c1ccccc1`: 3.55 µM [rising, single point]; for `Fc1ccc(-c2nc3c(Cl)cc(C(F)(F)F)cn3c2Cl)cc1`: 9.2 µM [rising, partial curve].
As for `Oc1nc(Nc2ccccc2)sc1/C=C1\C=Nc2ccccc21`, the half-maximal activity concentration (AC50) is 15.8 µM [falling, partial curve].
`CCCC(=O)NC(=S)Nc1ccc(CN2CCOCC2)cc1`: the AC50 is 5.62 µM [rising, single point].
Regarding `COc1cc(N)ccc1Cc1ccc(N)cc1OC`, the AC50 was 22.4 µM [falling, single point].
The same measure for `COc1ccc(/C=N\NC(=O)COc2ccc(C(C)(C)C)cc2)cc1Cn1nc(C)cc1C`: 0.411 µM [falling, full curve, poor fit]; for `Cc1ccc2cc(S(=O)(=O)NCCC(=O)O)ccc2c1`: 18.4 µM [falling, partial curve, poor fit].
With `FC(F)(F)c1cc(-c2ccco2)nc(NCc2ccccc2)n1` the figure was 14.1 µM [falling, single point].
